In all, about 1,700 compounds were measured (“T2 sensor activation Q score (MG/GFP ratio z-score vs DMSO controls)”: median about 0.3, highest 2% from about 1.9 on). The list shows a part of the results.

For this assay, the system named is ppGalNAc-T2 sensor. As to the kind of experiment: T2 sensor activation Q score (MG/GFP ratio z-score vs DMSO controls) (SD units); higher = more sensor activation (inhibition of ppGalNAc-T2 glycosylation). The conditions noted are these: HEK293 sensor cells; 10 µM; 6 h. How it is done: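 Cells were treated with compound at 10 uM for 6 h, then MG/GFP ratio was read by flow cytometry (10,000 cells per well, duplicate wells). Q = (R - R_neg)/SD_neg relative to DMSO vehicle controls; the signal rises when the glycosyltransferase is inhibited.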
With `CN1CCN(c2nc(N)c(Br)c(Cl)n2)CC1`, the “T2 sensor activation Q score” value came out at 0.8.

Turning to `O=[As](O)(O)c1ccc(N=Nc2ccc(O)cc2)cc1`, the “T2 sensor activation Q score” value was -1.75.

Consider `O=C1CCCN1CC#CCN1CCCC1`, for which the “T2 sensor activation Q score” value is -0.3.

`CC(C)(C)n1cc(C(=O)c2ccccc2)cc1-c1ccccc1`: the “T2 sensor activation Q score” value is 0.8.

Regarding `Cc1ccc2c(c1)Oc1ccccc1N=C2`, the “T2 sensor activation Q score” value was found to be 1.2.

As to `CCc1cc2c(cc1-c1csc(C/C(N)=N/O)n1)C(C)(C)CCC2(C)C`, the “T2 sensor activation Q score” value turned out to be 1.35.

In the case of `CC1(C)NC(=S)C(C)(C)N1N=O`, the “T2 sensor activation Q score” value was -1.5.

For the compound `COc1cc(OC)cc(C2(C#N)CCN(C)CC2)c1`, the “T2 sensor activation Q score” value was 1.9.

On to `O=C1NC(=O)C(=Cc2ccc3ccccc3c2)C(=O)N1`, for which the “T2 sensor activation Q score” value was determined as 0.7.

Take `Cc1n[nH]c2c([N+](=O)[O-])c(=O)[nH]c(=O)n12`: the “T2 sensor activation Q score” value stood at 0.4.

`CC(CC(C#N)(c1ccccc1)c1ccccc1)N1CCCCC1` (centres undefined): the “T2 sensor activation Q score” value is 1.3.

With `Cc1ccccc1NC(=O)NCCN1CC1`, the “T2 sensor activation Q score” value turned out to be 0.8.

For `O=C(OC1CCCCC1)c1ccccc1C(=O)OC1CCCCC1`, the “T2 sensor activation Q score” value was -2.9.

Turning to `Cn1cnc([N+](=O)[O-])c1Sc1n[nH]c(N)n1`, the “T2 sensor activation Q score” value was determined as 1.8.

As to `CCC(N)Cc1c[nH]c2ccccc12` (centres undefined), the “T2 sensor activation Q score” value worked out at 1.2.

Regarding `CN1CCC(c2c[nH]c3ccccc23)C1` (centres undefined), the “T2 sensor activation Q score” value was determined as 0.5.

Consider `O=C1CCC2(O)[C@@H]3Cc4ccc(O)c5c4[C@]2(CCN3Cc2ccoc2)C1O5` (some centres undefined), for which the “T2 sensor activation Q score” value was 0.3.

Take `CC1=CC(O)C(O)C2(C)C1CC1OC(=O)C(O)C3C(C)C(O)C4(O)OCC13C42` (centres undefined): the “T2 sensor activation Q score” value turned out to be 0.75.

In the case of `COc1ccccc1[As](=O)(O)CC(O)COc1ccc(Cl)cc1Cl` (centres undefined), the “T2 sensor activation Q score” value stood at 0.75.

Turning to `Cc1c(N)nc([C@H](CC(N)=O)NC[C@H](N)C(N)=O)nc1C(=O)N[C@H](C(=O)N[C@H](C)[C@@H](O)[C@H](C)C(=O)N[C@H](C(=O)NCCc1nc(-c2nc(C(=O)NCCC[S+](C)C)cs2)cs1)[C@@H](C)O)[C@@H](OC1OC(CO)C(O)C(O)C1OC1OC(CO)C(O)C(OC(N)=O)C1O)c1cnc[nH]1` (some centres undefined), the “T2 sensor activation Q score” value is -0.45.

Consider `ClC1=C(Cl)C(Cl)=C(Cl)C1=C/C=C/c1ccccc1`, for which the “T2 sensor activation Q score” value is -1.8.

With `CC[C@@]1(O)C(=O)OCc2c1cc1n(c2=O)Cc2cc3c(NC(=O)CN)cccc3nc2-1`, the “T2 sensor activation Q score” value came to 0.25.

In the case of `Cc1c2ccncc2c(C)c2c1[nH]c1ccccc12`, the “T2 sensor activation Q score” value was -5.2.

As to `O=P1(NCCCl)OCCCN1CCCl` (centres undefined), the “T2 sensor activation Q score” value was -2.6.

`Oc1cccc2nc3ccccc3nc12`: the “T2 sensor activation Q score” value is -0.15.

`N#CC(C#N)=Cc1ccc(C=C(C#N)C#N)cc1`: the “T2 sensor activation Q score” value is 0.9.

In the case of `O=C(NCCCN1CC1)Nc1cccc2ccccc12`, the “T2 sensor activation Q score” value turned out to be 1.35.

Consider `COc1ccc2c(c1O)[C@]13CCN(C)[C@H](C2)[C@@H]1CCC(=O)C3`, for which the “T2 sensor activation Q score” value was -0.1.

For the compound `c1cc(C2N3CCCN2CC3)ccn1` (centres undefined), the “T2 sensor activation Q score” value was -0.3.

On to `C=CCNC(=S)Nc1ccc(OC(=O)Nc2ccc(Cl)c(Cl)c2)cc1`, for which the “T2 sensor activation Q score” value was -0.85.

In the case of `CC(C)CC(NC=O)C(=O)O.COc1cc2c(cc1OC)C13CCN4CC5=CCOC6CC(=O)N2C1C6C5CC43` (centres undefined), the “T2 sensor activation Q score” value turned out to be 1.3.

For `COc1ccc2c(c1)C13CCN(C)C(C2)C1CCC1(C3)OCCO1` (centres undefined), the “T2 sensor activation Q score” value was 2.

For the compound `CN1C(=O)NC(=O)C(N=Nc2ccc(Cl)cc2)C1=O` (centres undefined), the “T2 sensor activation Q score” value is 1.05.

On to `CC(=O)Nc1cccc([As](=O)(c2cccc(NC(C)=O)c2)c2cccc(NC(C)=O)c2)c1`, for which the “T2 sensor activation Q score” value worked out at 1.05.

For `CC1Oc2cc3c(-c4c(O)cc(O)c5c(O)c6c(cc45)OC(C)C(C)C6=O)c(O)cc(O)c3c(O)c2C(=O)C1C` (centres undefined), the “T2 sensor activation Q score” value worked out at 0.15.

On to `C=Cc1cc(OC)c2c(c1)c(=O)oc1c2cc(OC)c2c(O)ccc(C3OC(C)C(O)C(C)(O)C3O)c21` (centres undefined), for which the “T2 sensor activation Q score” value is -0.15.

For the compound `O=C1NC(=O)C(=Cc2csc3ccccc23)C(=O)N1`, the “T2 sensor activation Q score” value was -0.05.

With `N[C@@H](Cc1ccc(N(CCCl)CCCl)cc1)C(=O)O`, the “T2 sensor activation Q score” value was -1.4.

For `CCC1CCC(C)N(N=O)C1` (centres undefined), the “T2 sensor activation Q score” value turned out to be 0.1.

As to `CSc1nc(C)c(Br)c(N2CC2)n1`, the “T2 sensor activation Q score” value is -1.05.

Consider `NC(=O)c1ccc(C(=O)Nc2ccc([As](=O)(O)O)cc2)cc1`, for which the “T2 sensor activation Q score” value is -0.4.

As to `CC12CCC3c4ccc(OC(=O)N(CCCl)CCCl)cc4CCC3C1CCC2O` (centres undefined), the “T2 sensor activation Q score” value was -0.35.

For the compound `CCN1CC2C3CCC(C)(O3)C2C1` (centres undefined), the “T2 sensor activation Q score” value is 1.85.

For `C[C@H]1CC[C@H]2NCCN[C@H]2C1`, the “T2 sensor activation Q score” value is 0.55.

For `CNC(=O)Oc1ccc(N(C)C)cc1C(C)C`, the “T2 sensor activation Q score” value came out at 0.25.

On to `c1ccc2c(c1)Sc1ccccc1N2CC1CN2CCC1CC2` (centres undefined), for which the “T2 sensor activation Q score” value is -2.5.

In the case of `O=[N+]([O-])c1cc(-c2ccc([As](=O)(O)O)cc2)ccc1[As](=O)(O)O`, the “T2 sensor activation Q score” value was found to be 0.65.

For the compound `C/C=C(/C)C(=O)O[C@H]1CCN2CC=C(COC(=O)[C@@](O)([C@H](C)OC)C(C)(C)O)[C@H]12`, the “T2 sensor activation Q score” value was 0.2.

For the compound `CC12CCC3C(CC=C4CC(O)CCC43C)C1C/C(=C\N1CCCC1)C2=O` (centres undefined), the “T2 sensor activation Q score” value was determined as 0.15.

On to `COc1cccc2c1C(=O)c1c(O)c3c(c(O)c1C2=O)CC(O)(C(C)=NO)CC3OC1CC(N)C(O)C(C)O1` (centres undefined), for which the “T2 sensor activation Q score” value is -1.85.

With `CC(Cc1ccccc1)NC(N)=O` (centres undefined), the “T2 sensor activation Q score” value was 1.8.

As for `Cc1ncc([N+](=O)[O-])n1CCOC(N)=O`, the “T2 sensor activation Q score” value is -0.85.

For `CCC1CN1P1(=O)OCC(C)([N+](=O)[O-])CO1` (centres undefined), the “T2 sensor activation Q score” value worked out at 0.85.

`COC[C@H]1OC(=O)c2coc3c2[C@@]1(C)C1=C(C3=O)[C@@H]2CCC(=O)[C@@]2(C)C[C@H]1OC(C)=O`: the “T2 sensor activation Q score” value was determined as 2.1.

The values are drawn from the supplement of paper PMC5407854, “Inhibitor of ppGalNAc-T3-mediated O-glycosylation blocks cancer cell invasiveness and lowers FGF23 levels” (eLife, 2017).
